Measurements taken from the supplement of paper PMC4604168 (melanoma cell lines).
Some of the results follow. Single values are uncertain, as repeats are few or missing.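 Imaging used 1,536-well plates; nuclei positive for cleaved PARP by antibody were divided by total DNA-stained nuclei to yield the apoptosis fraction. Doses for screening kept most cells viable, and cell lines differ markedly in resting and induced cleaved-PARP levels.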

test system: IST-MEL1; experiment: cleaved PARP positive nuclei fraction relative to DMSO control; melanoma cells; higher = more apoptosis; settings: library dose: low library concentration; 72 h

Q: How did the “cleaved PARP positive nuclei fraction” value turn out when `O=c1[nH]nc(Sc2ncc([N+](=O)[O-])s2)n1-c1ccc2c(c1)OCCO2` + OCc1c[nH]c2ccccc12 [Indole-3-carbinol] (first compound 0.2 µM, partner dose 0.8 µM) was run?
A: The value was 62.5%.

Q: For `O=C(/C=C/c1cccnc1)NCCCCC1CCN(C(=O)c2ccccc2)CC1` + CO[C@H]1C[C@@H]2CC[C@@H](C)[C@@](O)(O2)C(=O)C(=O)N2CCCC[C@H]2C(=O)O[C@H]([C@H](C)C[C@@H]2CC[C@@H](OCCO)[C@H](OC)C2)CC(=O)[C@H](C)/C=C(\C)[C@@H](O)[C@@H](OC)C(=O)[C@H](C)C[C@H](C)/C=C/C=C/C=C/1C [everolimus] (first compound 0.01 µM, partner dose 0.02 µM), which “cleaved PARP positive nuclei fraction” value is on record?
A: Its value is 101%.

Q: How did the “cleaved PARP positive nuclei fraction” value turn out when `O=c1[nH]nc(Sc2ncc([N+](=O)[O-])s2)n1-c1ccc2c(c1)OCCO2` + CS(=O)(=O)CCNCc1ccc(-c2ccc3ncnc(Nc4ccc(OCc5cccc(F)c5)c(Cl)c4)c3c2)o1 [lapatinib] (first compound 0.2 µM, partner dose 0.8 µM) was run?
A: The value was 122%.

Q: With `COc1cc([C@@H]2c3cc4c(cc3[C@@H](O[C@@H]3O[C@@H]5CO[C@@H](C)O[C@H]5[C@H](O)[C@H]3O)[C@H]3COC(=O)[C@H]23)OCO4)cc(OC)c1O` [etoposide] + CO[C@H]1C[C@@H]2CC[C@@H](C)[C@@](O)(O2)C(=O)C(=O)N2CCCC[C@H]2C(=O)O[C@H]([C@H](C)C[C@@H]2CC[C@@H](OCCO)[C@H](OC)C2)CC(=O)[C@H](C)/C=C(\C)[C@@H](O)[C@@H](OC)C(=O)[C@H](C)C[C@H](C)/C=C/C=C/C=C/1C [everolimus] (first compound 0.02 µM, partner dose 0.02 µM) as the compound, how does the “cleaved PARP positive nuclei fraction” value read?
A: The value was 224%.

Q: With `Cc1cn(-c2cc(NC(=O)c3ccc(C)c(Nc4nccc(-c5cccnc5)n4)c3)cc(C(F)(F)F)c2)cn1` [nilotinib] + Nc1cccc2c1CN(C1CCC(=O)NC1=O)C2=O [lenalidomide] (first compound 0.2 µM, partner dose 1 µM) as the compound, how does the “cleaved PARP positive nuclei fraction” value read?
A: The value was 88.3%.

Q: For `Cc1ccc(Nc2nccc(N(C)c3ccc4c(C)n(C)nc4c3)n2)cc1S(N)(=O)=O` [Pazopanib] + CNC(=O)c1cc(Oc2ccc(NC(=O)Nc3ccc(Cl)c(C(F)(F)F)c3)cc2)ccn1 [sorafenib] (first compound 0.4 µM, partner dose 0.4 µM), which “cleaved PARP positive nuclei fraction” value is on record?
A: The value was 94.5%.

Q: For `O=c1[nH]nc(Sc2ncc([N+](=O)[O-])s2)n1-c1ccc2c(c1)OCCO2` + CS(=O)(=O)c1ccc(C(=O)Nc2ccc(Cl)c(-c3ccccn3)c2)c(Cl)c1 [vismodegib] (first compound 0.2 µM, partner dose 1 µM), which “cleaved PARP positive nuclei fraction” value is on record?
A: The value was 62.4%.
